# Experimental data reported in the supplement of paper PMC10338343.
# ± gives the standard deviation. This is a selection; strong and weak results do not stand in their true shares. Many of these values have a large error. This is one part of the list.
# System: MILI (PIWIL2) piRISC loaded with L1MC piRNA (26 nt)
# Test: pre-steady-state target cleavage rate (min^-1); higher = faster piRNA-guided slicing of the target
# Details: guide: L1MC piRNA 5'p-UAACUAAAUACUAUGCAAGCUGUAGG; auxiliary factor: none (no GTSF1)
# Summary of the method: (§1)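 The pre-steady-state cleavage rate came from a burst-and-steady-state fit to pooled data from three Cleave-'n-Seq trials, in which uncleaved targets were sequenced and normalised to depth and to weakly complementary targets. Each reaction held 0.1 nM transcribed, DNA-blocked target RNA library and 1 nM active affinity-purified piRISC carrying one synthetic guide, with or without 500 nM GTSF1 partner protein, in HEPES–potassium acetate buffer at 33 °C for 0–8 or 0–960 min. k3 was capped at 0.0001 min^-1.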
row,Sequence,pre-steady-state target cleavage rate
1,UCCUGCUACAGCUUGCAUACUAUUUUGUUA,0.00139 ± 0.0046
2,UCCUGGAUGAGCUUGCAUAGUAUUAUCAAA,0.000511 ± 0.012
3,UCCUGGAUGAGCUUGCAAAGUAUUUACUUA,0.00299 ± 0.0033
4,UCCUGCAACAGCUUGCAUAGUAUUUACAAA,0.00137 ± 0.0047
5,UCCUCCUACAGCUUGCAUAGUAUUGUAGUUA,0.00171 ± 0.005
6,UCCUCCAACAGCUUCCAUAGUAUUUAGUUA,0.0016 ± 0.004
7,UCCUGCUACAGCUUGGAUAGUAUUUAGAUA,0.00169 ± 0.0034
8,UCCUGGUACAGCUUGCAUAGUUAUUAGUAA,0.00164 ± 0.0042
9,UCCUGGAUGAGCUUGGCAUAGUAUUUAGUUA,0.00219 ± 0.0032
10,UCCUGGAACAGCUUGCAUUGUAUUUUGUUA,0.00156 ± 0.0034
11,UCCUGGAUGAGCAUGCAUAGUAUUUUGUUA,0.00297 ± 0.0036
12,UCCUGGAACAGCUUGCCAUAGUAUUUAGUUA,0.00159 ± 0.0037
13,UCCUGGAUGUCGAACCAUCAGUAUUUAGUUA,< 0.0001
14,UCCUGGAACAGCUUGCAUAGUAUUUUGAUA,0.00128 ± 0.0038
15,UCCUGGAUCAGCUUGCAUAGUUUUUACUUA,0.00102 ± 0.006
16,UCCUCGUACAGCUUGCAUAGAAUUUAGUUA,0.00192 ± 0.0025
17,UCCUGGAACAGCUUGGAUACUAUUUAGUUA,0.00232 ± 0.0025
18,UCCUGGAUGAGCUUGCAUAGUAUUUUGAUA,0.00132 ± 0.0041
19,UCCUGGAUGUGCUUGCAUACUAUUUAGAUA,0.000556 ± 0.013
20,UCCUCCUACAGCUUGCAUAGUUUUUAGAUA,0.00103 ± 0.0055

row,Sequence,pre-steady-state target cleavage rate
1,UCCUGGAUGUCGUUCCAUAGUAAUUAGUUA,0.000213 ± 0.021
2,UCCUGGUACAGGUUGCAUAGUAUUUAGAUA,0.00249 ± 0.0035
3,UCCUGGAACAGCUUGCAUUGUAUUUAGAAA,0.00111 ± 0.0057
4,UCCUGGUUCAGCUUGCAUAGUAUUUACAAA,0.0013 ± 0.0051
5,UCCUGGAACAGCUUGCAUACUAUUUUGUUA,0.00115 ± 0.0059
6,UCCUGGAUCAGCUUGCAUAGUAUAAUCAAA,0.000833 ± 0.0063
7,UCCUGGAUGUCGAACGUAUCUAUUUAGUUUA,0.000341 ± 0.011
8,UCCUGGAUGUCCUUGCAUAGUAUUUGAGUUA,0.00236 ± 0.0036
9,UCCUGGAACAGCUUGCAUUGUAUUUACAAA,0.000807 ± 0.007
10,UCCUGGAACAGCUUGCUUAGUAUUAAGUUA,0.00193 ± 0.003
11,UCCUGGAUGUGCUUGCAUAGUAUUUACAUA,0.001 ± 0.0061
12,UCCUGGAUGAGCUUCCAUAGUAAUUAGUUA,0.00075 ± 0.0066
13,UCCUCCUACACCUUGCAUAGUUUUUAGUUA,0.00249 ± 0.0031
14,UCCUGGAACAGCUUGCAUAGUUUUUAGAUA,0.00126 ± 0.0057
15,UCCUGGUACUGCUUGCAUAGUAUUAAGUUA,0.0026 ± 0.0036
16,UCCUGGAUGAGCUUGCAUAGUAAAUACAAA,0.000652 ± 0.0095
17,UCCUCCUACAGCUUGCAUUCUAUUUAGUAA,0.000834 ± 0.006
18,UCCUGGAUGAGCUUGCAUAGUUUUUAGUAA,0.00256 ± 0.003
19,UCCUGGAUCAGCUUGCAUAGUAUUAUGAAA,0.000969 ± 0.0065
20,UCCUCCUACAGCUUGCUUAGAAUUUAGUUA,0.00155 ± 0.0032

# System: EfPiwi piRISC loaded with L1MC piRNA (26 nt)
# Test: pre-steady-state target cleavage rate (min^-1); guide: L1MC piRNA 5'p-UAACUAAAUACUAUGCAAGCUGUAGG; MIWI and MILI are mouse PIWI proteins and EfPiwi is from a freshwater sponge; tags in brackets are library labels; higher = faster piRNA-guided slicing of the target
# Details: auxiliary factor: 500 nM Ephydatia muelleri Gtsf1
# Summary of the method: as §1
row,Sequence,pre-steady-state target cleavage rate
1,UCCUGCUACAGCUUGCAUACUAUUUUGUUA,0.00432 ± 0.0019
2,UCCUGGAUGAGCUUGCAUAGUAUUAUCAAA,0.000944 ± 0.005
3,UCCUGGAUGAGCUUGCAAAGUAUUUACUUA,0.00103 ± 0.0042
4,UCCUGCAACAGCUUGCAUAGUAUUUACAAA,0.00305 ± 0.0022
5,UCCUCCUACAGCUUGCAUAGUAUUGUAGUUA,0.0032 ± 0.0012
6,UCCUCCAACAGCUUCCAUAGUAUUUAGUUA,0.00439 ± 0.0021
7,UCCUGCUACAGCUUGGAUAGUAUUUAGAUA,0.00339 ± 0.001
8,UCCUGGUACAGCUUGCAUAGUUAUUAGUAA,0.00807 ± 0.0043
9,UCCUGGAUGAGCUUGGCAUAGUAUUUAGUUA,0.0123 ± 0.0039
10,UCCUGGAACAGCUUGCAUUGUAUUUUGUUA,0.00509 ± 0.0026
11,UCCUGGAUGAGCAUGCAUAGUAUUUUGUUA,0.00201 ± 0.0024
12,UCCUGGAACAGCUUGCCAUAGUAUUUAGUUA,0.0042 ± 0.0019
13,UCCUGGAUGUCGAACCAUCAGUAUUUAGUUA,0.000371 ± 0.018
14,UCCUGGAACAGCUUGCAUAGUAUUUUGAUA,0.00265 ± 0.0024
15,UCCUGGAUCAGCUUGCAUAGUUUUUACUUA,0.00064 ± 0.007
16,UCCUCGUACAGCUUGCAUAGAAUUUAGUUA,0.00771 ± 0.0018
17,UCCUGGAACAGCUUGGAUACUAUUUAGUUA,0.00145 ± 0.0043
18,UCCUGGAUGAGCUUGCAUAGUAUUUUGAUA,0.00213 ± 0.0027
19,UCCUGGAUGUGCUUGCAUACUAUUUAGAUA,0.00202 ± 0.0015
20,UCCUCCUACAGCUUGCAUAGUUUUUAGAUA,0.00341 ± 0.0022

row,Sequence,pre-steady-state target cleavage rate
1,UCCUGGAUGUCGUUCCAUAGUAAUUAGUUA,< 0.0001
2,UCCUGGUACAGGUUGCAUAGUAUUUAGAUA,0.00271 ± 0.0024
3,UCCUGGAACAGCUUGCAUUGUAUUUAGAAA,0.00376 ± 0.0021
4,UCCUGGUUCAGCUUGCAUAGUAUUUACAAA,0.00195 ± 0.0034
5,UCCUGGAACAGCUUGCAUACUAUUUUGUUA,0.00252 ± 0.0023
6,UCCUGGAUCAGCUUGCAUAGUAUAAUCAAA,0.00378 ± 0.0043
7,UCCUGGAUGUCGAACGUAUCUAUUUAGUUUA,0.000182 ± 0.021
8,UCCUGGAUGUCCUUGCAUAGUAUUUGAGUUA,0.00517 ± 0.0037
9,UCCUGGAACAGCUUGCAUUGUAUUUACAAA,0.00227 ± 0.0031
10,UCCUGGAACAGCUUGCUUAGUAUUAAGUUA,0.00237 ± 0.002
11,UCCUGGAUGUGCUUGCAUAGUAUUUACAUA,0.00301 ± 0.0037
12,UCCUGGAUGAGCUUCCAUAGUAAUUAGUUA,0.0016 ± 0.0049
13,UCCUCCUACACCUUGCAUAGUUUUUAGUUA,0.00443 ± 0.002
14,UCCUGGAACAGCUUGCAUAGUUUUUAGAUA,0.00205 ± 0.0016
15,UCCUGGUACUGCUUGCAUAGUAUUAAGUUA,0.00169 ± 0.0032
16,UCCUGGAUGAGCUUGCAUAGUAAAUACAAA,0.00115 ± 0.0039
17,UCCUCCUACAGCUUGCAUUCUAUUUAGUAA,0.00145 ± 0.0047
18,UCCUGGAUGAGCUUGCAUAGUUUUUAGUAA,0.00121 ± 0.0053
19,UCCUGGAUCAGCUUGCAUAGUAUUAUGAAA,0.00116 ± 0.0033
20,UCCUCCUACAGCUUGCUUAGAAUUUAGUUA,0.00419 ± 0.002
